The source of these data is paper PMC3725163.

Chains of the proteins cited; added tags and fusions are not shown. Residues count along the entry.
UniProt P29837, residues 2512-3414: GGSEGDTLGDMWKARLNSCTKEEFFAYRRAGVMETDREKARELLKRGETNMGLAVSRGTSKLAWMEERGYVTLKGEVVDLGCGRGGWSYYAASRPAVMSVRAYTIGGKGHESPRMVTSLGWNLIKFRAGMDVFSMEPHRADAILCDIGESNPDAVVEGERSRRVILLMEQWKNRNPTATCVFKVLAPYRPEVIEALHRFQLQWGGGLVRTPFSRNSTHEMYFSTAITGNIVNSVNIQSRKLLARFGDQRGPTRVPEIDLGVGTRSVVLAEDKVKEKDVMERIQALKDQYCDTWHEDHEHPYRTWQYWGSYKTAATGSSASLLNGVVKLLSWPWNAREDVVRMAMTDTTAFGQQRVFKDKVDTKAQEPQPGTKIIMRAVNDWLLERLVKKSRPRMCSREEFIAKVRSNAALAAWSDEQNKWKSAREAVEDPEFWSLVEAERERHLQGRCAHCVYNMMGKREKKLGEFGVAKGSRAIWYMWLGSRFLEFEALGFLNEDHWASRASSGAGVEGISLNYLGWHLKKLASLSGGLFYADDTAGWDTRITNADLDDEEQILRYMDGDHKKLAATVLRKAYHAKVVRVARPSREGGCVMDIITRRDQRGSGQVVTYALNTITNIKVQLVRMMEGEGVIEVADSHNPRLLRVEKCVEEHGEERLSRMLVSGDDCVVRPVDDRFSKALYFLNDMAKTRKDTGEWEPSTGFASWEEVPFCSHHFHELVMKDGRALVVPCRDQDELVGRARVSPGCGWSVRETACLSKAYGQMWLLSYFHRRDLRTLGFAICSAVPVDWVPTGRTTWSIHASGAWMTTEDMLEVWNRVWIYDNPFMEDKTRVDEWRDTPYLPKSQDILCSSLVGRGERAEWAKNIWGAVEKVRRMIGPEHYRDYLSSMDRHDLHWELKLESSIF

The assay addresses T1, human PKGIβ-Flag (cGMP-dependent protein kinase G I beta), expressed in HEK293T cells (human) (UniProt Q13976).
T1 sequence: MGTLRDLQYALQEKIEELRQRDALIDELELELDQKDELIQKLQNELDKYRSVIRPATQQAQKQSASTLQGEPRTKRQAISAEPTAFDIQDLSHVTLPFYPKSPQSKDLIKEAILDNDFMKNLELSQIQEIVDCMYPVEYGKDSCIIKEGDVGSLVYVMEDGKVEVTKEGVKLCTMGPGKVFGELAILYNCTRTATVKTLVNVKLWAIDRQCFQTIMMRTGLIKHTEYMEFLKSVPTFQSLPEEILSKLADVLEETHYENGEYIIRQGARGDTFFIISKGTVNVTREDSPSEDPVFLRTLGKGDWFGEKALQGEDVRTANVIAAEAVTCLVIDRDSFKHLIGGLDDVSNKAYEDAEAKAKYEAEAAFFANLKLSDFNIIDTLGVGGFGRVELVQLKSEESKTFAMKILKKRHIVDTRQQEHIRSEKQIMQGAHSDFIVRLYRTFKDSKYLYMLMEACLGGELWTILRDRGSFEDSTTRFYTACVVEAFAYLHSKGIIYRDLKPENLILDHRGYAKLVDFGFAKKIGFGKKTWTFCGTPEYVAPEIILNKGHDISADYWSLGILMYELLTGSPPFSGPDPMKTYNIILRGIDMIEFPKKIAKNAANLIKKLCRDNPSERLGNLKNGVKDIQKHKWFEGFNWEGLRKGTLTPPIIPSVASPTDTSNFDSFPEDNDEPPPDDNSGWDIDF
The assay is described as follows: co-IP.

Results are given in words; binding and its absence hold for the method and conditions named. In cells and extracts the contact can be indirect. Sequences can lack the tags named with a protein.

For “Langat virus NS5, full-length (aa 1-904), HA-tagged, expressed in HEK293T cells (from UniProt P29837)”, the binding entry was “no binding”.
